Measured values: patent publication US10849992B1, “Methods of screening for sortilin binding antagonists” (ALECTOR LLC, priority 2015, dated 2020)
These are yes or no findings as the source states them, for the method shown. Some entries that bind do so weakly or less than the wild type.

Tests used:
[1] = biological target: T1, human sortilin expressed on cells (human, UniProt Q99523 78-831); experiment: flow cytometry, blocking of biotinylated human PGRN on sortilin-expressing HEK293T cells by the sortilin pro-domain peptide
T1 construct: Transiently transfected HEK293T cells; also called Sortilin1; full-length Sortilin
T1 sequence: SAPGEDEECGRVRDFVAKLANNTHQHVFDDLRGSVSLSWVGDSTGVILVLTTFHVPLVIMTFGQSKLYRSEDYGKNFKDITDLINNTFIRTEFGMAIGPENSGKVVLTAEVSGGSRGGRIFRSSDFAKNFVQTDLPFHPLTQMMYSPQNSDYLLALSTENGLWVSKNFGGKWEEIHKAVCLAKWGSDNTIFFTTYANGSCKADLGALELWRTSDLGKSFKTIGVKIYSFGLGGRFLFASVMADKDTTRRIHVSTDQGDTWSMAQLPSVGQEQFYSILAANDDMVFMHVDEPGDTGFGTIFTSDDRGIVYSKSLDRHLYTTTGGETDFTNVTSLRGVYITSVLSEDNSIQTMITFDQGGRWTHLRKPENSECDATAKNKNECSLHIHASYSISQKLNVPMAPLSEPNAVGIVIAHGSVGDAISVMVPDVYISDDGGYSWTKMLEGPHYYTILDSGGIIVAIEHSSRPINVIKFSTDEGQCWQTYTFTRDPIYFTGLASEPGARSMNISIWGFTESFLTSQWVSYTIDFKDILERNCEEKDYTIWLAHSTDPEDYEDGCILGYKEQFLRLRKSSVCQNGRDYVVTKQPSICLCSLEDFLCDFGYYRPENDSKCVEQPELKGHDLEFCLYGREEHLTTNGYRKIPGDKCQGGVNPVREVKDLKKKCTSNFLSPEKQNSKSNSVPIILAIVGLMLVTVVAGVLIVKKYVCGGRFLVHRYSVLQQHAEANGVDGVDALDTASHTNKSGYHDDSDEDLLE

[2] = biological target: T1, human sortilin expressed on cells; experiment: fluorescence microscopy, blocking of 40 nM DyLight-650 PGRN on HEK293T cells transfected with human sortilin
[3] = biological target: T1, human sortilin expressed on cells; experiment: flow cytometry, blocking of PGRN-DyLight650 binding and endocytosis on sortilin-expressing cells

Measured: binding

B1: sortilin pro-domain peptide (peptide, UniProt Q99523 34-77, looked up)
peptide: QDRLDAPPPPAAPLPRWSGPIGVSWGLRAAAAGGAFPRGGRWRR
notes: domain: pro-domain; also called Sortilin1 pro-domain peptide; sortilin pro-peptide
binds: [1] | [2] | [3]
